Values quoted from earlier work as cited in patent US20020041894A1, “METHOD OF FORCING THE REVERSE TRANSPORT OF CHOLESTEROL FROM A BODY PART TO THE LIVER WHILE AVOIDING HARMFUL DISRUPTIONS OF HEPATIC CHOLESTEROL HOMEOSTASIS AND PHARMACEUTICAL COMPOSITIONS AND KIT RELATED THERETO” (priority 1995, published 2002).
At least one compound was matched to its structure with a doubt left.

Details: cardiac transplant recipients; control group 22%

In the case of `CC[C@H](C)C(=O)O[C@H]1C[C@H](O)C=C2C=C[C@H](C)[C@H](CC[C@@H](O)C[C@@H](O)CC(=O)O)[C@H]21` [pravastatin], the “died in the first year” value is given as 6%.
